This note sets out measurements from PMC12431657, “Discovery and mechanistic insights of dibenzoylmethane as a broad spectrum inhibitor of coronavirus” (PLOS Pathogens, 2025).

In this assay the test system is HCoV-OC43. Also on record: species or system RD; HTS, protection from HCoV-OC43 induced cell death, luminescent cell viability (CellCounting-Lite 2.0), inhibition rate. As to conditions: 24 h post infection, 1 h compound pre-incubation, 10 µM, inhibitor.

SMILES strings stand for the structures. Structures can show the parent of a compound that is named as a salt. Where two headings read alike, the source gives them in different places. About 60 (2%) of roughly 3,300 compounds showed an effect of 50% or more. Some of the results follow.

As for `O=c1ccc2cc(O[C@@H]3O[C@H](CO)[C@@H](O)[C@H](O)[C@H]3O)c(O)cc2o1` [Esculin], the “OC43 Inhibition rate” value was -0.7%. On to `O=C(O)c1ccc2c(c1)OCO2` [Piperonylic acid], for which the “OC43 Inhibition rate” value is -0.5%. Turning to `CCCC(N)C(=O)O` (racemic) [DL-Norvaline], the “OC43 Inhibition rate” value amounted to 1.1%. As to `CC1=C[C@]23C(=O)[C@@H](C=C4COC(C)(C)O[C@H]4C2(O)[C@H]1O)[C@H]1[C@@H](C[C@H]3C)C1(C)C` (some centres unmarked) [Ingenol-5,20-acetonide], the “OC43 Inhibition rate” value is -2.5%.

`CC(C)=CCC[C@@](C)(O)[C@H]1CC[C@]2(C)[C@@H]1[C@H](O)C[C@@H]1[C@@]3(C)CC[C@H](O)C(C)(C)[C@@H]3CC[C@]12C` [(20R)-Protopanaxadiol]: the “OC43 Inhibition rate” value was -0.6%. Turning to `OC[C@H]1O[C@@H](Oc2c(O)cc(O)cc2/C=C/c2ccc(O)cc2)[C@H](O)[C@@H](O)[C@@H]1O` [2,3,5,4'-Tetrahydroxystilbene 2-O-β-D-glucoside], the “OC43 Inhibition rate” value is listed as -0.2%.

For `CCCCC/C=C\C/C=C\C/C=C\CCCCC(=O)O` [Gamma-Linolenic acid], the “OC43 Inhibition rate” value was found to be 0.4%. Still for that read-out and setting: the value for `OCCc1ccccc1` [2-Phenylethanol] was 1.5%; that for `C[S+](CC[C@H](N)C(=O)[O-])C[C@H]1O[C@@H](n2cnc3c(N)ncnc32)[C@H](O)[C@@H]1O` (stereo partly drawn) [S-Adenosyl-L-methionine (tosylate)] was -3.4%. Take `O=c1cc(-c2ccccc2)c2c(O)cc(O)cc2o1` [LC3-mHTT-IN-AN2]: the “OC43 Inhibition rate” value was -1.1%. Regarding `COc1ccc(-c2cc(=O)c3c(O)cc(O[C@@H]4O[C@H](C(=O)O)[C@@H](O)[C@H](O)[C@H]4O)cc3o2)cc1O` [DiosMetin 7-O-β-D-Glucuronide], the “OC43 Inhibition rate” value is listed as 1%. In the case of `NCC(O)c1ccc(O)cc1` (centres unmarked) [Octopamine (hydrochloride)], the “OC43 Inhibition rate” value is -0.1%.

As to `CC(C)=CCC[C@](C)(O)[C@H]1CC[C@]2(C)[C@@H]1[C@H](O)C[C@@H]1[C@@]3(C)CC[C@H](O)C(C)(C)[C@@H]3[C@@H](O)C[C@]12C` [(20S)-Protopanaxatriol], the “OC43 Inhibition rate” value is on record as -0.3%. For the molecule `O=C(c1ccccc1)c1ccccc1` [Benzophenone], the “OC43 Inhibition rate” value is reported as -0.1%. For the molecule `C[C@@H]1CC[C@@]2(OC1)O[C@H]1C[C@H]3[C@@H]4CC=C5C[C@@H](O)CC[C@]5(C)[C@H]4CC[C@]3(C)[C@H]1[C@@H]2C` [Diosgenin], the “OC43 Inhibition rate” value came out at 0%. Turning to `C=C[C@H]1CN2CC[C@H]1C[C@@H]2[C@@H](O)c1ccnc2ccc(OC)cc12` [Quinidine], the “OC43 Inhibition rate” value (OC43 Inhibition rate, 24 h) was 39.6%. With `O=C(O)[C@H](O)Cc1ccc(O)c(O)c1` [Danshensu], the “OC43 Inhibition rate” value is listed as -0.5%. With `Cc1ccc(-c2ccccc2)cc1` [4-Methylbiphenyl], the “OC43 Inhibition rate” value was 0.9%. Turning to `COc1ccc2c(c1OC)C(OC)N(C)c1c-2ccc2cc3c(cc12)OCO3` (centres unmarked) [Angoline], the “OC43 Inhibition rate” value is -15.2%. On to `C[C@@]12C[C@@]3(O)O[C@@H](O1)[C@]1(COC(=O)c4ccccc4)[C@H]3C[C@@]12O[C@@H]1O[C@H](COC(=O)c2ccccc2)[C@@H](O)[C@H](O)[C@H]1O` [Benzoylpaeoniflorin], for which the “OC43 Inhibition rate” value is 0.2%.

On to `C=C[C@H]1[C@H](O[C@@H]2O[C@H](CO)[C@@H](O)[C@H](O)[C@H]2O)OC=C2C(=O)OCC[C@H]21` [Sweroside], for which the “OC43 Inhibition rate” value was -1.8%. `COc1cc(O)c(C(=O)/C=C/c2ccccc2)c(OC)c1` [Flavokawain B]: the “OC43 Inhibition rate” value stood at 58.3%. In the case of `CC1CCC(C(C)C)C(O)C1` (racemic) [DL-Menthol], the “OC43 Inhibition rate” value is listed as -0.4%. Still for that read-out and setting: the value for `CC(/C=C/C=C(\C)C(=O)O[C@@H]1O[C@H](CO[C@@H]2O[C@H](CO)[C@@H](O)[C@H](O)[C@H]2O)[C@@H](O)[C@H](O)[C@H]1O)=C\C=C\C=C(C)\C=C\C=C(/C)C(=O)O[C@@H]1O[C@H](CO[C@@H]2O[C@H](CO)[C@@H](O)[C@H](O)[C@H]2O)[C@@H](O)[C@H](O)[C@H]1O` [Crocin] was 0%; that for `CC(O)(CC(=O)O)CC(=O)O` [Meglutol] was -0.1%; that for `O=C([O-])c1ccc[n+]([C@@H]2O[C@H](CO)[C@@H](O)[C@H]2O)c1` [Nicotinic acid riboside] was 0.2%.

On to `NC(CCCC(=O)O)C(=O)O` (centres unmarked) [Aminoadipic acid], for which the “OC43 Inhibition rate” value is 1.4%. Same read-out and setting: the result for `NC(=O)c1ccc[n+]([C@@H]2O[C@H](CO)[C@@H](O)[C@H]2O)c1` [Nicotinamide riboside (chloride)] reads 0.1%; that for `NC[C@@H]1O[C@H](O[C@H]2[C@@H](O)[C@H](O[C@@H]3[C@@H](O)[C@H](N)C[C@H](N)[C@H]3O[C@H]3O[C@H](CN)[C@@H](O)[C@H](O)[C@H]3N)O[C@@H]2CO)[C@H](N)[C@@H](O)[C@@H]1O` [Neomycin (sulfate)], -1.5%; that for `C/C1=C/CC[C@H](C)C(=O)C[C@@H](C(C)C)C(=O)C1` [Curdione], 1.6%. Take `O=C(O)Cc1cccc2ccccc12` [1-Naphthaleneacetic acid]: the “OC43 Inhibition rate” value was determined as 0.7%. For `C=C(NC(=O)c1csc(-c2nc3c(cc2O)-c2nc(cs2)C(=O)N[C@@H]([C@@H](C)O)C(=O)N/C(=C/C)c2nc(cs2)C(=O)N[C@H]2C[C@H](O)C(=O)OCc4cccc5[nH]c(c(C)c45)C(=O)SC[C@H](NC(=O)c4csc2n4)c2nc-3cs2)n1)C(N)=O` [Nosiheptide], the “OC43 Inhibition rate” value was 15.6%. On the same count and under the same terms, the value for `C[C@H](CO)C1=C(O)C(=O)c2c(ccc3c2CCCC3(C)C)C1=O` [Neocryptotanshinone] was 2.7%. Take `C/C=C/c1ccc(OC(C)=O)c(OC)c1` [Isoeugenol acetate]: the “OC43 Inhibition rate” value was 6.3%. Still for that read-out and setting: the value for `C=CCC(C)C(=O)O` (centres unmarked) [2-Methyl-4-pentenoic Acid] was -0.3%; that for `CCOC(=O)CC(=O)C(C)(C)C` [Ethyl pivaloylacetate] was 0%. Same read-out and setting: the result for `C=C(CC[C@@H](C(=O)O)[C@H]1[C@H](O)C[C@@]2(C)C3=CC[C@@H](C(=C)C)[C@](C)(CCC(=O)O)C3=CC[C@]12C)C(C)C` [Poricoic acid A] reads 0.8%. In the case of `O=C(O)CC(O)(CC(=O)O)C(=O)O` [Sodium citrate (dihydrate)], the “OC43 Inhibition rate” value (OC43 Inhibition rate, 24 h) is -0.7%.
